PubChem BioAssay AID1259254 | NCATS | 2017
Here is one part, drawn at random, of about 59,000 reagents. About 1,550 of them (2.6%) count as active. 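G2 share is only a proxy for re-replication; each gene was hit by three separate siRNAs, and active genes were retested.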 Reagents against one gene are numbered here. Further read-outs or replicates are left out here. No sequences are given here. Not stated in the record: the amount of reagent.

- Test: 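Finding genes that stop cells copying their DNA twice in one cycle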 (primary screen)
- Cell system: human HCT116 colorectal cancer cells
- Reagents: single siRNA against human genes
- Time to read-out: 3 days
- Read-out: 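Nuclei stained with Hoechst and imaged; cell-cycle phase assigned by DNA content; G2 share scaled per plate, non-targeting siRNA 0%, GMNN siRNA 100%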
- Direction: G2 robust z-score: higher = more G2 cells, more excess DNA replication
- Rule for the call: 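Active siRNAs have a G2 robust z of 5 or more median absolute deviations over the median, which in these data means about 38% or higher of GMNN control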

Against REEP5 (GeneID 7905) #1, the entry reads G2 robust z-score 0.132; inactive.
With knock-down of REEP5 (GeneID 7905) #2, the screen gave G2 robust z-score -0.562; inactive.
REEP5 (GeneID 7905) #3 showed G2 robust z-score -0.217; inactive.
After knock-down of FAM135B (GeneID 51059) #1, the screen gave G2 robust z-score -1; inactive.
With knock-down of FAM135B (GeneID 51059) #2, the record shows G2 robust z-score 2.63; inactive.
With knock-down of FAM135B (GeneID 51059) #3, the screen gave G2 robust z-score -0.35; inactive.

Copied from the list:
For “outcome”, FAM135B (GeneID 51059) #2 is entered as inactive
For “G2 robust z-score”, FAM135B (GeneID 51059) #1 has -1
Under “outcome”, FAM135B (GeneID 51059) #3 shows inactive

Continued:
TNRC6B (GeneID 23112) #1 showed G2 robust z-score -0.00939; inactive.
Knock-down of TNRC6B (GeneID 23112) #2 gave: G2 robust z-score -0.205; inactive.
After knock-down of TNRC6B (GeneID 23112) #3, the record shows G2 robust z-score 0.647; inactive.
Silencing of MATCAP1 (GeneID 653319) #1 resulted in: G2 robust z-score -0.254; inactive.
For MATCAP1 (GeneID 653319) #2 the deposit lists G2 robust z-score -0.607; inactive.
After knock-down of MATCAP1 (GeneID 653319) #3, the record shows G2 robust z-score -1.09; inactive.
Depletion of HRG (GeneID 3273) #1 gave: G2 robust z-score -0.72; inactive.
Depletion of HRG (GeneID 3273) #2 resulted in: G2 robust z-score -0.482; inactive.
With knock-down of HRG (GeneID 3273) #3, the record shows G2 robust z-score 2.04; inactive.
Silencing of ZFP28 (GeneID 140612) #1 came out at: G2 robust z-score 5.07; active.
For ZFP28 (GeneID 140612) #2, the values are G2 robust z-score -0.0372; inactive.
After knock-down of ZFP28 (GeneID 140612) #3, the screen gave G2 robust z-score 1.8; inactive.
